For one molecule, DNA intercalator results are on record in patent publication US20230364057A1, “BACTERIAL DNA GYRASE INHIBITORS AND METHODS OF USE THEREOF” (THE FLORIDA INTERNATIONAL UNIVERSITY BOARD OF TRUSTEES, priority 2022, published 2023).

This data set relates to DNA. Put plainly: DNA intercalation / DNA binding.

SMILES strings stand for the structures.

As for `CSC1SC2C(=O)N(C)C(C(C)C)C(=O)OCC(NC(=O)c3cnc4ccccc4n3)C(=O)NC(C)C(=O)N(C)C1C(=O)N(C)C(C(C)C)C(=O)OCC(NC(=O)c1cnc3ccccc3n1)C(=O)NC(C)C(=O)N2C` (stereo not shown) [Compound 258], the DNA intercalator entry was “DNA intercalators”.
